This is an account of results in PMC3948737.

Sequences of proteins named here, by UniProt entry; tags and fusion partners are left off.
UniProt Q9UBN7: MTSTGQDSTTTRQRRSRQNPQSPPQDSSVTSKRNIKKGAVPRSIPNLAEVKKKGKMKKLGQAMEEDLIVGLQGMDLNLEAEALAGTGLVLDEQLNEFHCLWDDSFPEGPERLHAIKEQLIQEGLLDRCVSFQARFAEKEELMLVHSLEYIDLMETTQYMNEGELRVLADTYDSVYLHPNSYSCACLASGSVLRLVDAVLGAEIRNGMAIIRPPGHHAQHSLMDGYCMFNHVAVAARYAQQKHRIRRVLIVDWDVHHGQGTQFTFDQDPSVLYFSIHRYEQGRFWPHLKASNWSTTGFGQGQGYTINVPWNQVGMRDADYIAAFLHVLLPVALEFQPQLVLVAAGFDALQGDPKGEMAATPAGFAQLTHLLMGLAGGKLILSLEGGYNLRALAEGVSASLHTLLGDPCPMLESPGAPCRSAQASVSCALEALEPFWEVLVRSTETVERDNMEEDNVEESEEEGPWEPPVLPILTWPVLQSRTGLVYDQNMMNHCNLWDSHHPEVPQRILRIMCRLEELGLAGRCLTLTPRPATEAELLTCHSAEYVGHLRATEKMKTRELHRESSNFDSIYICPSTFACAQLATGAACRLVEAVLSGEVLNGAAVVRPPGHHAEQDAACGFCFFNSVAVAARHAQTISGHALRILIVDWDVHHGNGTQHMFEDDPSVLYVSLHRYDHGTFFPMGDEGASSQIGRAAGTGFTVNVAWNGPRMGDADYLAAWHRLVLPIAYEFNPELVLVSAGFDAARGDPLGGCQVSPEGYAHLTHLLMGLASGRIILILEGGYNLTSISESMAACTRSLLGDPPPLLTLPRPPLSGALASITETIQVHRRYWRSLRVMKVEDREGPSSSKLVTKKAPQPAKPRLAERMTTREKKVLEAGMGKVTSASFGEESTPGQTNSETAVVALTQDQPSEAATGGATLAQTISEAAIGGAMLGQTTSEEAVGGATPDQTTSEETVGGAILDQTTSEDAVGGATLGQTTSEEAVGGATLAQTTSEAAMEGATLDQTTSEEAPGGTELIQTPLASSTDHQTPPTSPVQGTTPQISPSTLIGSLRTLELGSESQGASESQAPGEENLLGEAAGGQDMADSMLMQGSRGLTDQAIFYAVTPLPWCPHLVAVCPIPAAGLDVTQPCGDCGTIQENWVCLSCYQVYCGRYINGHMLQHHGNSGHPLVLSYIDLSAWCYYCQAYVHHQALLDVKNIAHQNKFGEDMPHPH

In assay [1] the target is T1, GST-tagged Mdp3 full-length (UniProt Q8IWC1).
T1 sequence: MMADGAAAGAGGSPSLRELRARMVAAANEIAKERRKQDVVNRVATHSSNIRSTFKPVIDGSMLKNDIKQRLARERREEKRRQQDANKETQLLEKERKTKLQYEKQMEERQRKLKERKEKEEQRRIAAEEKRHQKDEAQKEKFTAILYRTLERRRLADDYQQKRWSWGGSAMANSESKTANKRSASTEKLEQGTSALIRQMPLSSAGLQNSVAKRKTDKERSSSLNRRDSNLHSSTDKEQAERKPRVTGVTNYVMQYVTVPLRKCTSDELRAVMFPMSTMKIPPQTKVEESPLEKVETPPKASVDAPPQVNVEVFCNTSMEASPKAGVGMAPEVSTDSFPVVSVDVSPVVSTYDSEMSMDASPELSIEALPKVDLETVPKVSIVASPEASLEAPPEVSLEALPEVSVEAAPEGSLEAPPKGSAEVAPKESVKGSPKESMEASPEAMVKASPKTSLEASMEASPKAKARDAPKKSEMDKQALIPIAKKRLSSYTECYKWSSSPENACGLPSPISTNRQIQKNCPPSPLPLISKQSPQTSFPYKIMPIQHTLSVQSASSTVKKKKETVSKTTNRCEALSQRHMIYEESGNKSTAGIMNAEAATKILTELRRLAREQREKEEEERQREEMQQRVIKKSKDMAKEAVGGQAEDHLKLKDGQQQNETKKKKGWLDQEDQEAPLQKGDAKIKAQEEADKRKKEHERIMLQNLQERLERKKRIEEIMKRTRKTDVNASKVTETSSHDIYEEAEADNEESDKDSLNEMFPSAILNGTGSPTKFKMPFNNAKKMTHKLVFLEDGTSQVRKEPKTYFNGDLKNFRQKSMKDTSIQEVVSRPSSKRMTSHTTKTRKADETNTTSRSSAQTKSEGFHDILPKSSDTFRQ
The assay is described as follows: pull-down; HeLa cells transfected with GST or GST-Mdp3 fusion proteins; GST-pulldown from cell lysates on glutathione beads; immunoblot with anti-HDAC6. Background: In western blotting, separated proteins are transferred to a membrane and probed.

Assay [2] concerns the target GFP-HDAC6 (histone deacetylase 6) (UniProt Q9UBN7). The assay is described as follows: co-IP; HeLa cells transfected with GFP or GFP-HDAC6; anti-GFP immunoprecipitation; immunoblot with anti-Mdp3.

No constants are given. Whether binding was seen depends on the method and setting. Binding seen in cells or lysates may run through a third protein. Some entries that bind do so weakly or less than the wild type. For some assays here: Where a sequence is shown, tags or fusion partners need not be part of it.

Regarding “HDAC6 (histone deacetylase 6), endogenous (from UniProt Q9UBN7 1-1215) (enzyme)”, in assay [1], the binding entry is “binds”.

B1: Mdp3 (MAP7 domain-containing protein 3), endogenous (protein, UniProt Q8IWC1 1-876)
chain: T1 sequence
For B1, the binding entry in assay [2] is “binds”.
